Where a chain is given by its changes, count along the chain named. Results are given in words; binding and its absence hold for the method and conditions named. Some binding calls cover weakened binding; strength is not graded here.

For experiment [1], the target named is human Notch2 (construct not stated) (human) (UniProt Q04721). The experiment is described as follows: array SPR imaging epitope binning; antibody amine-coupled to the chip, 50 nM human Notch2 injected, then second antibody at 10 µg/ml, 25 °C.
For another experiment, the target named is T1, huNotch2-EGF6-10 (human, UniProt Q04721 219-418).
T1 construct: also called human Notch2 EGF6-10
T1 sequence: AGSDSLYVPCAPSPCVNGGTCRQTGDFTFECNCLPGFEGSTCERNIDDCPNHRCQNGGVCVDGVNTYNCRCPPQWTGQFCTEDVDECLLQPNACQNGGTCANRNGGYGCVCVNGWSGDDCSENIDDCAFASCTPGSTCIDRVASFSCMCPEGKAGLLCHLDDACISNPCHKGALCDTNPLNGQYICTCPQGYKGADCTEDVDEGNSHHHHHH
Briefly: SPR BIAcore.

B1: rat.1B2 (rat/human chimeric anti-Notch2 antibody 1B2) (antibody, V domains shown)
VH: EVKLVDYGGGLVQPGASLRLSCEVSGFTFSDFYMEWIRQAPGKGLEWIAASRNKANNFSIVYSASVKDRFTISRDTYKSILYLQMSTLKPEDTAVYYCSRDSGRWGLDAWGQGTSVIVSS
VL: DIQMTQSPASLSASLGETVTIQCQTSEDIYSGLAWYHQKPGKSPQLLIYGASRLQDGVPSRFTGSGSGTQYSLKISSMQTEDEGVYFCQQGFKYPLTFGSGTKLEIK
notes: also called 1B2 Chimeric; chimeric 1B2
As to B1, the binding entry in experiment [1] is “binds”.

B2: rat.3107 (rat/human chimeric anti-Notch2 antibody 3107) (antibody, V domains shown)
VH: QVQLQQSGAELAKSGSSVKISCKASGYTFSNYVIHWIKQTTGQAPEWTGYIIPGSGGTKFNEKFKGKATLTVDKSSTTAYMQLSSLTPVDTAVYYCARDGAGSFTYWGQGTLVTVSS
VL: DVLMTQTPVSLPVSLGGQVSISCRSSQSLVHSDGNTYLHWFLQKPGQSPQLLIYRISNRFSGVPDRFSGSGSGTDFTLKISRVEPEDLGVYYCLQSTHFPDTFGGGTKVEIK
For B2, the binding entry in experiment [1] is “binds”.

B3: hu1B2.v4L7 (antibody, V domains shown)
VH: EVQLVESGGGLVQPGGSLKLSCAVSGFTFSDFYMEWIRQASGKGLEWIAAQRNKANDFSIVYSASVKDRFTISRDTSKSTLYLQMNSLKTEDTAVYYCSRDGGRLALDAWGQGTLVTVSS
VL: DIQMTQSPSSVSASVGDRVTITCQTSEDIYSGLAWYQQKPGKSPKLLIYGASRLQDGVPSRFSGSGSGTDYTLTISSLQPEDFATYYCQQGFKYPLTFGGGTKVEIK
B3: the binding entry with huNotch2-EGF6-10 was “binds”.

B4: hu1B2.v9L7 (antibody, V domains shown)
VH: B3 VH with R104K, L105W, A106G
VL: B3 VL
For the molecule B4, in the experiment with huNotch2-EGF6-10, the binding entry is “binds”.

B5: hu1B2.v8L7 (antibody, V domains shown)
VH: B3 VH with R104K
VL: B3 VL
As to B5, in the experiment with huNotch2-EGF6-10, the binding result is given as “binds”.

The record behind these values is US20230322958A1 (Genentech, published 2023).
